These are yes or no findings as the source states them, for the method shown. For some assays here: In cells and extracts the contact can be indirect. Some results given as binding are weak or reduced against the parent protein; the word gives no strength. For some assays here: Sequences can lack the tags named with a protein. Each block holds one binder with its values, some of them ahead of it.
Experiments:
Bcl-10-CARD/BD (yeast) = Bcl-10-CARD/BD (yeast) (UniProt P04386+O95999); test: mammalian two-hybrid, 293T cells
[1] = target: T1, Myc-tagged CARD-9 (human) (UniProt Q9H257); test: co-immunoprecipitation from transfected 293T cells (anti-Flag IP, anti-Myc blot)
T1 sequence: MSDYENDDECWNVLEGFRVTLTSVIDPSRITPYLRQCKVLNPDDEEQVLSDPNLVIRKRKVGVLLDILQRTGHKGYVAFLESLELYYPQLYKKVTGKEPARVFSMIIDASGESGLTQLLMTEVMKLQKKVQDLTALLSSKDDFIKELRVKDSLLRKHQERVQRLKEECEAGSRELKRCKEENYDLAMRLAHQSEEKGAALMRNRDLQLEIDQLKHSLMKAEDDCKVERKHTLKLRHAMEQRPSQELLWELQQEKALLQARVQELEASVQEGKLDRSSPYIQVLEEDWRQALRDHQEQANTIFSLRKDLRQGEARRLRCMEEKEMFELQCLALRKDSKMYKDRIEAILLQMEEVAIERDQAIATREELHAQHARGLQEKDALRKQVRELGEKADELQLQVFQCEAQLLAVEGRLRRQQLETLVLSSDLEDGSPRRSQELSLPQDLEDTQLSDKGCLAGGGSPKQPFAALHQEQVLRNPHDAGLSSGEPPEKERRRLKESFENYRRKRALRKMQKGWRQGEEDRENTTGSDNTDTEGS

Sequences of proteins named here, by UniProt entry; tags and fusion partners are left off. A change or cut given only in a name is not applied to a line headed by its entry.
UniProt P04386: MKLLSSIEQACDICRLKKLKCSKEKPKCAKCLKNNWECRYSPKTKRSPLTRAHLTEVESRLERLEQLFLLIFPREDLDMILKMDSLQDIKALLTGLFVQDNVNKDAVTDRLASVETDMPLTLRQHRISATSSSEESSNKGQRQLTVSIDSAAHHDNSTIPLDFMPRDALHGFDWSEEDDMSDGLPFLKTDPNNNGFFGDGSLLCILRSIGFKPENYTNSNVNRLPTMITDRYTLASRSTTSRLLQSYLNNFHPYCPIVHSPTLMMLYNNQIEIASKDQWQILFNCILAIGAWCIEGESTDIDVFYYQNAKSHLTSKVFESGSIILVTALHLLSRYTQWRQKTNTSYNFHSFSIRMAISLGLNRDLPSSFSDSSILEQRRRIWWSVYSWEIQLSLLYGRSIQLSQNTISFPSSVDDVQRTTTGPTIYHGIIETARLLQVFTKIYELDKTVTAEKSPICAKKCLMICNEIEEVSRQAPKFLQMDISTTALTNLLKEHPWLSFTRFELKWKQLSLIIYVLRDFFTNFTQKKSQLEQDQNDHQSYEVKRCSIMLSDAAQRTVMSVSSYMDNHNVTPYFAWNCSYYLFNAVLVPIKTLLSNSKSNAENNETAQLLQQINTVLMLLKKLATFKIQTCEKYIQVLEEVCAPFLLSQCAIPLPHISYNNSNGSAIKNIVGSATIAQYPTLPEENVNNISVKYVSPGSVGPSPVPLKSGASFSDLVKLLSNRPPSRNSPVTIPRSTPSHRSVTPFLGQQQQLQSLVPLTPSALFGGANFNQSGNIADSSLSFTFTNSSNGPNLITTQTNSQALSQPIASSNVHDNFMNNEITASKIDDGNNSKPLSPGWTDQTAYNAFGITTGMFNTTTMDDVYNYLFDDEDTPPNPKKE
UniProt Q9H257: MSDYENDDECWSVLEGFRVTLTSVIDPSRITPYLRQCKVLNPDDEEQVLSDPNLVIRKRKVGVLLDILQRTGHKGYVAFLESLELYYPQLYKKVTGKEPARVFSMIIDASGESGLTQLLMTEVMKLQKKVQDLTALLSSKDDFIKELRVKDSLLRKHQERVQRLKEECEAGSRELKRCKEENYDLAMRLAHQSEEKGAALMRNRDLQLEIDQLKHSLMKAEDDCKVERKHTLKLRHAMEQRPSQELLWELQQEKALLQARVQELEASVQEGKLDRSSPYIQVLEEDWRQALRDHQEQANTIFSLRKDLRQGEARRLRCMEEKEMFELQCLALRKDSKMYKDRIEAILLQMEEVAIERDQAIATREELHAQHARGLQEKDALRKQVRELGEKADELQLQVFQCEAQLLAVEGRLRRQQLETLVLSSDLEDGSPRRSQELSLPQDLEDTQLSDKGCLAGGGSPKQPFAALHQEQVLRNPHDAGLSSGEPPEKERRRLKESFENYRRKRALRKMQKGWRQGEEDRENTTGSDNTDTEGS

[2] = target: T1, Myc-tagged CARD-9 (human); test: co-immunoprecipitation (anti-Flag IP, Myc blot)
[3] = target: T2, endogenous Bcl-10 (human) (UniProt O95999); test: co-immunoprecipitation from transfected 293T cells (Bcl-10 IP, anti-Myc blot)
T2 sequence (looked up): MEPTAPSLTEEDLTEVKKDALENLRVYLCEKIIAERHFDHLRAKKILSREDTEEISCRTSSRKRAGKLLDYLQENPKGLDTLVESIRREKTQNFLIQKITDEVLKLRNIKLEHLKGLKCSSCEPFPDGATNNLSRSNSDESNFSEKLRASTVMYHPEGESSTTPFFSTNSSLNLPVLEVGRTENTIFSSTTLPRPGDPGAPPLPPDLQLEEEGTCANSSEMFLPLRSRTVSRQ

[4] = target: T2, endogenous Bcl-10 (human); test: co-immunoprecipitation (Bcl-10 IP, anti-Myc blot)
[5] = target: T2, endogenous Bcl-10 (human); test: co-immunoprecipitation from Thp1 cell extracts
[6] = target: T2, endogenous Bcl-10 (human); test: co-immunoprecipitation of endogenous proteins from Thp1 cells
GST-Bcl-10 [7] = target: T3, GST-Bcl-10 (UniProt O95999); test: GST pull-down of 35S-methionine-labeled CARD-9 on glutathione-sepharose, autoradiography
T3 sequence (looked up): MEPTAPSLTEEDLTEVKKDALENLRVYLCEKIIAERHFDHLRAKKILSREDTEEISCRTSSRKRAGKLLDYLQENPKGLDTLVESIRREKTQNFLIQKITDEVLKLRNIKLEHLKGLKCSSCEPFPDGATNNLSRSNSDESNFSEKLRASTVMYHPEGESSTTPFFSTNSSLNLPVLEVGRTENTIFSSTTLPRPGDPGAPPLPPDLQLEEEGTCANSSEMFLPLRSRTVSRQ

GST-Bcl-10 [8] = target: T3, GST-Bcl-10; test: GST pull-down, autoradiography
[9] = target: T2, endogenous Bcl-10 (human); test: co-immunoprecipitation (anti-Bcl-10 IP, anti-FLAG blot)
[10] = target: T2, endogenous Bcl-10 (human); test: co-immunoprecipitation from transfected 293T cells (anti-Bcl-10 IP, anti-FLAG blot)

B1: CARD-11-CARD fused to the NF-kB activation domain (pCMV-CARD-11/AD) (protein, mouse)
chain: SPMLLPSGQISNQALALAPSSAPVLAQTMVPSSAMVPLAQPPAPAPVLTPGPPQSLSAPVPKSTQAGEGTLSEALLHLQFDADEDLGALLGNSTDPGVFTDLASVDNSEFQQLLNQGVSMSHSTAEPMLMEYPEAITRLVTGSQRPPDPAPTPLGTSGLPNGLSGDEDFSSIADMDFSALLSQISSEEDALWENVECNRHMLSRYINPAKLTPYLRQCKVIDEQDEDEVLNAPMLPSKINRAGRLLDILHTKGQRGYVVFLESLEFYYPELYKLVTGKE
- binding (Bcl-10-CARD/BD (yeast)): binds

B5: 35S-labeled CARD-9 (protein)
chain: MSDYENDDECWNVLEGFRVTLTSVIDPSRITPYLRQCKVLNPDDEEQVLSDPNLVIRKRKVGVLLDILQRTGHKGYVAFLESLELYYPQLYKKVTGKEPARVFSMIIDASGESGLTQLLMTEVMKLQKKVQDLTALLSSKDDFIKELRVKDSLLRKHQERVQRLKEECEAGSRELKRCKEENYDLAMRLAHQSEEKGAALMRNRDLQLEIDQLKHSLMKAEDDCKVERKHTLKLRHAMEQRPSQELLWELQQEKALLQARVQELEASVQEGKLDRSSPYIQVLEEDWRQALRDHQEQANTIFSLRKDLRQGEARRLRCMEEKEMFELQCLALRKDSKMYKDRIEAILLQMEEVAIERDQAIATREELHAQHARGLQEKDALRKQVRELGEKADELQLQVFQCEAQLLAVEGRLRRQQLETLVLSSDLEDGSPRRSQELSLPQDLEDTQLSDKGCLAGGGSPKQPFAALHQEQVLRNPHDAGLSSGEPPEKERRRLKESFENYRRKRALRKMQKGWRQGEEDRENTTGSDNTDTEGS
modifications: 35S-methionine labeled
- binding (GST-Bcl-10 [7]): binds
- binding (GST-Bcl-10 [8]): binds

B6: FLAG-tagged CARD-10 (protein, not shown: small tags and cut ends)
chain: MPGRAEAGEAEEEAGAGSGSEAEEDALWERIEGVRHRLARALNPAKLTPYLRQCRVIDEQDEEEVLSTYRFPCRVNRTGRLMDILRCRGKRGYEAFLEALEFYYPEHFTLLTGQEPAQRCSMILDEEGPEGLTQFLMTEVRRLREARKSQLQREQQLQARGRVLEEERAGLEQRLRDQQQAQERCQRLREDWEAGSLELLRLKDENYMIAMRLAQLSEEKNSAVLRSRDLQLAVDQLKLKVSRLEEECALLRRARGPPPGAEEKEKEKEKEKEPDNVDLVSELRAENQQLTASLRELQEGLQQEASRPGAPGSERILLDILEHDWREAQDSRQELCQKLHAVQGELQWAEELRDQYLQEMEDLRLKHRTLQKDCDLYKHRMATVLAQLEEIEKERDQAIQSRDRIQLQYSQSLIEKDQYRKQVRGLEAERDELLTTLTSLEGTKALLEVQLQRAQGGTCLKACASSHSLCSNLSSTWSLSEFPSPLGGPEATGEAAVMGGPEPHNSEEATDSEKEINRLSILPFPPSAGSILRRQREEDPAPPKRSFSSMSDITGSVTLKPWSPGLSSSSSSDSVWPLGKPEGLLARGCGLDFLNRSLAIRVSGRSPPGGPEPQDKGPDGLSFYGDRWSGAVVRRVLSGPGSARMEPREQRVEAAGLEGACLEAEAQQRTLLWNQGSTLPSLMDSKACQSFHEALEAWAKGPGAEPFYIRANLTLPERADPHALCVKAQEILRLVDSAYKRRQEWFCTRVDPLTLRDLDRGTVPNYQRAQQLLEVQEKCLPSSRHRGPRSNLKKRALDQLRLVRPKPVGAPAGDSPDQLLLEPCAEPERSLRPYSLVRPLLVSALRPVVLLPECLAPRLIRNLLDLPSSRLDFQVCPAESLSGEELCPSSAPGAPKAQPATPGLGSRIRAIQESVGKKHCLLELGARGVRERVQNEIYPIVIHVEVTEKNVREVRGLLGRPGWRDSELLRQCRGSEQVLWGLPCSWVQVPAHEWGHAEELAKVVRGRILQEQARLVWVECGSSRGCPSSSEA
- binding [9]: binds
- binding [10]: binds

Now from value to binder:

- binding [1]: binds
- binding [2]: binds
B2: Flag-tagged CARD-9 (protein, not shown: small tags and cut ends)
chain: MSDYENDDECWNVLEGFRVTLTSVIDPSRITPYLRQCKVLNPDDEEQVLSDPNLVIRKRKVGVLLDILQRTGHKGYVAFLESLELYYPQLYKKVTGKEPARVFSMIIDASGESGLTQLLMTEVMKLQKKVQDLTALLSSKDDFIKELRVKDSLLRKHQERVQRLKEECEAGSRELKRCKEENYDLAMRLAHQSEEKGAALMRNRDLQLEIDQLKHSLMKAEDDCKVERKHTLKLRHAMEQRPSQELLWELQQEKALLQARVQELEASVQEGKLDRSSPYIQVLEEDWRQALRDHQEQANTIFSLRKDLRQGEARRLRCMEEKEMFELQCLALRKDSKMYKDRIEAILLQMEEVAIERDQAIATREELHAQHARGLQEKDALRKQVRELGEKADELQLQVFQCEAQLLAVEGRLRRQQLETLVLSSDLEDGSPRRSQELSLPQDLEDTQLSDKGCLAGGGSPKQPFAALHQEQVLRNPHDAGLSSGEPPEKERRRLKESFENYRRKRALRKMQKGWRQGEEDRENTTGSDNTDTEGS

- binding [3]: binds
- binding [4]: binds
B3: Myc-tagged CARD-9 (protein, not shown: small tags and cut ends)
chain: MSDYENDDECWNVLEGFRVTLTSVIDPSRITPYLRQCKVLNPDDEEQVLSDPNLVIRKRKVGVLLDILQRTGHKGYVAFLESLELYYPQLYKKVTGKEPARVFSMIIDASGESGLTQLLMTEVMKLQKKVQDLTALLSSKDDFIKELRVKDSLLRKHQERVQRLKEECEAGSRELKRCKEENYDLAMRLAHQSEEKGAALMRNRDLQLEIDQLKHSLMKAEDDCKVERKHTLKLRHAMEQRPSQELLWELQQEKALLQARVQELEASVQEGKLDRSSPYIQVLEEDWRQALRDHQEQANTIFSLRKDLRQGEARRLRCMEEKEMFELQCLALRKDSKMYKDRIEAILLQMEEVAIERDQAIATREELHAQHARGLQEKDALRKQVRELGEKADELQLQVFQCEAQLLAVEGRLRRQQLETLVLSSDLEDGSPRRSQELSLPQDLEDTQLSDKGCLAGGGSPKQPFAALHQEQVLRNPHDAGLSSGEPPEKERRRLKESFENYRRKRALRKMQKGWRQGEEDRENTTGSDNTDTEGS

- binding [5]: binds
- binding [6]: binds
B4: endogenous CARD-9 (protein)
chain: MSDYENDDECWNVLEGFRVTLTSVIDPSRITPYLRQCKVLNPDDEEQVLSDPNLVIRKRKVGVLLDILQRTGHKGYVAFLESLELYYPQLYKKVTGKEPARVFSMIIDASGESGLTQLLMTEVMKLQKKVQDLTALLSSKDDFIKELRVKDSLLRKHQERVQRLKEECEAGSRELKRCKEENYDLAMRLAHQSEEKGAALMRNRDLQLEIDQLKHSLMKAEDDCKVERKHTLKLRHAMEQRPSQELLWELQQEKALLQARVQELEASVQEGKLDRSSPYIQVLEEDWRQALRDHQEQANTIFSLRKDLRQGEARRLRCMEEKEMFELQCLALRKDSKMYKDRIEAILLQMEEVAIERDQAIATREELHAQHARGLQEKDALRKQVRELGEKADELQLQVFQCEAQLLAVEGRLRRQQLETLVLSSDLEDGSPRRSQELSLPQDLEDTQLSDKGCLAGGGSPKQPFAALHQEQVLRNPHDAGLSSGEPPEKERRRLKESFENYRRKRALRKMQKGWRQGEEDRENTTGSDNTDTEGS
